Reference: PubChem BioAssay AID1159578 (Peter MacCallum Cancer Centre, 2015)
Screen: 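Genome-wide hunt for genes controlling movement of lymphatic endothelial cells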 (primary screen). Cells: human lymphatic endothelial cells. Reagent: siRNA pool against human genes, 40 nM. Duration: 48 h after transfection. Measurement: 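Cells stained with dye and imaged after a scratch; covered wound area and nuclei counted, duplicates averaged, migration set against mock wells and turned into a robust z-score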. Scale: migration robust z-score: higher = faster migration into the scratch; nuclei per well: higher = more cells in the well. Hit rule: 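Migration changed when robust z exceeds 2 or falls below -2 and mean nuclei number is at least 3300; otherwise not called changed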. Meaning of the calls: active = migration changed; inactive = no migration change, or too few cells.
Shown is one part, drawn at random, of about 18,000 reagents. About 1,030 of all reagents (5.7%) count as active. 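Inactive calls also include pools with fewer than 3300 nuclei, whose migration was not assessed.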 Raw values vary from plate to plate and are shown uncorrected. Not all columns of the deposit are shown. No sequences are given here.

After knock-down of HSPB1 (heat shock protein family B (small) member 1), the record shows migration robust z-score 0.28; migration class with cell-count check migration z between -2 and 2; enough cells; nuclei per well, duplicate mean 4904; inactive.
NPVF (neuropeptide VF precursor) showed migration robust z-score -0.78; migration class with cell-count check migration z between -2 and 2; enough cells; nuclei per well, duplicate mean 6571; inactive.
VPS52 (VPS52 subunit of GARP complex) scored migration robust z-score 0.38; migration class with cell-count check migration z between -2 and 2; enough cells; nuclei per well, duplicate mean 5262; inactive.
Depletion of NAALADL1 (N-acetylated alpha-linked acidic dipeptidase like 1) gave: migration robust z-score -1.25; migration class with cell-count check migration z between -2 and 2; enough cells; nuclei per well, duplicate mean 5370; inactive.
Depletion of LSM12 (LSM12 homolog) came out at: migration robust z-score 1.7; migration class with cell-count check migration z between -2 and 2; enough cells; nuclei per well, duplicate mean 6290; inactive.
Against MAP3K3 (mitogen-activated protein kinase kinase kinase 3), the entry reads migration robust z-score -1.29; migration class with cell-count check migration z between -2 and 2; enough cells; nuclei per well, duplicate mean 4101; inactive.

2 successive records already listed:
NPVF (neuropeptide VF precursor): migration robust z-score = -0.78; migration class with cell-count check = migration z between -2 and 2; enough cells; nuclei per well, duplicate mean = 6571; Outcome = inactive
VPS52 (VPS52 subunit of GARP complex): migration robust z-score = 0.38; migration class with cell-count check = migration z between -2 and 2; enough cells; nuclei per well, duplicate mean = 5262; Outcome = inactive

The list goes on:
Against FCMR (Fc mu receptor) the deposit lists migration robust z-score -0.38; migration class with cell-count check migration z between -2 and 2; enough cells; nuclei per well, duplicate mean 4963; inactive.
With knock-down of SYVN1 (synoviolin 1), the record shows migration robust z-score -1.9; migration class with cell-count check migration z between -2 and 2; enough cells; nuclei per well, duplicate mean 4162; inactive.
RRM2B scored migration robust z-score 0.7; migration class with cell-count check migration z between -2 and 2; enough cells; nuclei per well, duplicate mean 5217; inactive.
For KRTAP10-5 (keratin associated protein 10-5) the deposit lists migration robust z-score 1.23; migration class with cell-count check migration z between -2 and 2; enough cells; nuclei per well, duplicate mean 5131; inactive.
Silencing of AMMECR1 (AMMECR nuclear protein 1) gave: migration robust z-score 0.23; migration class with cell-count check migration z between -2 and 2; enough cells; nuclei per well, duplicate mean 5550; inactive.
For OGT (O-linked N-acetylglucosamine (GlcNAc) transferase), the values are migration robust z-score -0.02; migration class with cell-count check migration z between -2 and 2; enough cells; nuclei per well, duplicate mean 6444; inactive.
